From the supplement of paper PMC12823440, “Inhibitors supercharge kinase turnover through native proteolytic circuits” (Nature, 2025)
Structures can show the parent of a compound that is named as a salt. Some of the results follow. The calls rarely recur for the same compound in another form.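 Kinases, fused to nanoluciferase, were expressed in K562 cells; luminescence was measured every 4 h from 2 to 18 h as percent of control (DMSO = 100%, positive control = 0%). A time point is decreased if signal falls significantly (2 sigma). Hits were called by the authors by a rule that is not shown; the count of time points alone does not decide it.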

Chains of the proteins cited; added tags and fusions are not shown. Lines headed by an entry give the natural chain unless they say otherwise; changes in a name come on top.
UniProt P50613: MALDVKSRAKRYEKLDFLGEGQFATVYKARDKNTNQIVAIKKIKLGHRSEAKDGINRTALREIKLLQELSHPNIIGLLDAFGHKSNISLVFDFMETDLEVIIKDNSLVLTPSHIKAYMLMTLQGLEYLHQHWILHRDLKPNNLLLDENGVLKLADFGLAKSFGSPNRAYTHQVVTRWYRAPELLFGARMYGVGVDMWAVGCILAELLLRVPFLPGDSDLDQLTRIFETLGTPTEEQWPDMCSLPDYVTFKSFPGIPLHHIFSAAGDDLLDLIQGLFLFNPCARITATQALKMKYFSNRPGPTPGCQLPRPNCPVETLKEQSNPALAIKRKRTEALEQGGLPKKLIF
UniProt P50750, whole entry: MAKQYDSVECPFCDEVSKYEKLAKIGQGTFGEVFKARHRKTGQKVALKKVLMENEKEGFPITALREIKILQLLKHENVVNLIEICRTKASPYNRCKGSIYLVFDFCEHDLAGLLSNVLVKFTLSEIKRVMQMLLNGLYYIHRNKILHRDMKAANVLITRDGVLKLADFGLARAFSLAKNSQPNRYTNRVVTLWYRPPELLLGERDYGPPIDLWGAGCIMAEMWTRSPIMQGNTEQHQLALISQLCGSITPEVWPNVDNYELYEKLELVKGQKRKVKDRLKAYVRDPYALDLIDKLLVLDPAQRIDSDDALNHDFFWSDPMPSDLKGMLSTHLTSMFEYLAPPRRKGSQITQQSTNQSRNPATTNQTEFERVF
UniProt O96017, whole entry: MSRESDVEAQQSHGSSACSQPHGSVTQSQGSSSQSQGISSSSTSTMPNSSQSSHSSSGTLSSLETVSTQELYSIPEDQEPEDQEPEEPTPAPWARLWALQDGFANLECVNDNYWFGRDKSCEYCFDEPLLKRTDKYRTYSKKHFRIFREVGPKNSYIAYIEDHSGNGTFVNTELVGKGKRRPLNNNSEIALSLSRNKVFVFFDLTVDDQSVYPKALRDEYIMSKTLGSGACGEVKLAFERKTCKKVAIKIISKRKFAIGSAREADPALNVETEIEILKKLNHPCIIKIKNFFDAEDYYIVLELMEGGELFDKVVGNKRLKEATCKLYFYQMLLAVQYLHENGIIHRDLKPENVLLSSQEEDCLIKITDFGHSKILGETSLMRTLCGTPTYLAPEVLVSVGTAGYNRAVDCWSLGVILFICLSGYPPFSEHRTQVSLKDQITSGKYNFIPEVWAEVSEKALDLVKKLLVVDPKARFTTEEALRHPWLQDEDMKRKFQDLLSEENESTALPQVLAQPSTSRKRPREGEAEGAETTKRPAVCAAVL
UniProt P07333, whole entry: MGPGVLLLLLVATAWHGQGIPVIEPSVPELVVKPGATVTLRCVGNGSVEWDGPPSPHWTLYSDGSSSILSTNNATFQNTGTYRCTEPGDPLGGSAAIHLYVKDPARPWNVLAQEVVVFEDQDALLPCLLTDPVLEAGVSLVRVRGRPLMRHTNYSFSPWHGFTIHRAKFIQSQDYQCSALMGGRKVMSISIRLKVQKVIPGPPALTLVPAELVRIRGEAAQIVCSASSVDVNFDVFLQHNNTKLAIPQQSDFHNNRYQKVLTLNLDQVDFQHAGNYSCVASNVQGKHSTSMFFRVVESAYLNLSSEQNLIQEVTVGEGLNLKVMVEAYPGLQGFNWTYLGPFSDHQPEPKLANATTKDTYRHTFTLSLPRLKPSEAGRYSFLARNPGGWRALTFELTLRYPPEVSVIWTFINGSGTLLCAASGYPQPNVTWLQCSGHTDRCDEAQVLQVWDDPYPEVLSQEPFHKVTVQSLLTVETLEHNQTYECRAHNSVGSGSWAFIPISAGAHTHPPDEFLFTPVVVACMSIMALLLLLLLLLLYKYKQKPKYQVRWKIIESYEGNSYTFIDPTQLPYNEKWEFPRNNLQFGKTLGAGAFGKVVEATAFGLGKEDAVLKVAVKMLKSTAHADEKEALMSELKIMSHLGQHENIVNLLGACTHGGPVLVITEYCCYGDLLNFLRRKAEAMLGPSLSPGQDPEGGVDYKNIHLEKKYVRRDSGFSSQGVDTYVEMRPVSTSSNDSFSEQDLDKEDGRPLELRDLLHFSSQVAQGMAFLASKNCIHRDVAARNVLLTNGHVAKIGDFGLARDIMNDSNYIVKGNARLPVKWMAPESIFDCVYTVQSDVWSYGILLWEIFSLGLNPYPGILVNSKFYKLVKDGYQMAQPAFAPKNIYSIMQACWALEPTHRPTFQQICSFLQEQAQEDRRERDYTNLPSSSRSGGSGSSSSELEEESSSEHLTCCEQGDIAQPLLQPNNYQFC
UniProt P41240: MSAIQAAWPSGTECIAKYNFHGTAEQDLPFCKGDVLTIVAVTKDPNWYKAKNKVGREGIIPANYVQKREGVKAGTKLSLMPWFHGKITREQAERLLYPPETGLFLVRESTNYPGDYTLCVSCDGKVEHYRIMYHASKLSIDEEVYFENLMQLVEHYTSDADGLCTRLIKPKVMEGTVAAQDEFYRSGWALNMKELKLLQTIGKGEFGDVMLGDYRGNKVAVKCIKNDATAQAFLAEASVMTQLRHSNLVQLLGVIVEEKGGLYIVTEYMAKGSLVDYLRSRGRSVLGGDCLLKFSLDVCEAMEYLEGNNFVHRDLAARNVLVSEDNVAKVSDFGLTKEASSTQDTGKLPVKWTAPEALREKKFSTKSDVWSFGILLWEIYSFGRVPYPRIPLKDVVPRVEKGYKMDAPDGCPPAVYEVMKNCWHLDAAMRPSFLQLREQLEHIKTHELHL
UniProt P48729: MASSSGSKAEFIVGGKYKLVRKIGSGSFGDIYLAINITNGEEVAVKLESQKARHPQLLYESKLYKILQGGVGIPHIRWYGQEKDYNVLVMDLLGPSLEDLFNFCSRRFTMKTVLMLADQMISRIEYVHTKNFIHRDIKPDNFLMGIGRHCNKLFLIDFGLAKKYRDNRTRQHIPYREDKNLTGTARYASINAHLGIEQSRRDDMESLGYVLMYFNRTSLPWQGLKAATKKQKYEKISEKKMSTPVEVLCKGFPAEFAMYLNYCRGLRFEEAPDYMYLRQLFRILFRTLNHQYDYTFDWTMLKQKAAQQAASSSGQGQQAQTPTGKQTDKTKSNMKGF
UniProt P48730: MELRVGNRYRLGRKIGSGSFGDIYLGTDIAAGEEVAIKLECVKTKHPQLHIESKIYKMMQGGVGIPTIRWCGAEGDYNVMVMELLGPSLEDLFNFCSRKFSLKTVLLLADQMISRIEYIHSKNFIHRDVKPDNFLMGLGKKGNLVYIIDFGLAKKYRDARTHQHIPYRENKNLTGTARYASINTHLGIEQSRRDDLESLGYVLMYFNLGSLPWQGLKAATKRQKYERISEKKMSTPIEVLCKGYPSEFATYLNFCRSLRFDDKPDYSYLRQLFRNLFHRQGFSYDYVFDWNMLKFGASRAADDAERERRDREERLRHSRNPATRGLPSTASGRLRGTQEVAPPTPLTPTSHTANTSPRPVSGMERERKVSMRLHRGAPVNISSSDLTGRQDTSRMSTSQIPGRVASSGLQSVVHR
UniProt Q08345: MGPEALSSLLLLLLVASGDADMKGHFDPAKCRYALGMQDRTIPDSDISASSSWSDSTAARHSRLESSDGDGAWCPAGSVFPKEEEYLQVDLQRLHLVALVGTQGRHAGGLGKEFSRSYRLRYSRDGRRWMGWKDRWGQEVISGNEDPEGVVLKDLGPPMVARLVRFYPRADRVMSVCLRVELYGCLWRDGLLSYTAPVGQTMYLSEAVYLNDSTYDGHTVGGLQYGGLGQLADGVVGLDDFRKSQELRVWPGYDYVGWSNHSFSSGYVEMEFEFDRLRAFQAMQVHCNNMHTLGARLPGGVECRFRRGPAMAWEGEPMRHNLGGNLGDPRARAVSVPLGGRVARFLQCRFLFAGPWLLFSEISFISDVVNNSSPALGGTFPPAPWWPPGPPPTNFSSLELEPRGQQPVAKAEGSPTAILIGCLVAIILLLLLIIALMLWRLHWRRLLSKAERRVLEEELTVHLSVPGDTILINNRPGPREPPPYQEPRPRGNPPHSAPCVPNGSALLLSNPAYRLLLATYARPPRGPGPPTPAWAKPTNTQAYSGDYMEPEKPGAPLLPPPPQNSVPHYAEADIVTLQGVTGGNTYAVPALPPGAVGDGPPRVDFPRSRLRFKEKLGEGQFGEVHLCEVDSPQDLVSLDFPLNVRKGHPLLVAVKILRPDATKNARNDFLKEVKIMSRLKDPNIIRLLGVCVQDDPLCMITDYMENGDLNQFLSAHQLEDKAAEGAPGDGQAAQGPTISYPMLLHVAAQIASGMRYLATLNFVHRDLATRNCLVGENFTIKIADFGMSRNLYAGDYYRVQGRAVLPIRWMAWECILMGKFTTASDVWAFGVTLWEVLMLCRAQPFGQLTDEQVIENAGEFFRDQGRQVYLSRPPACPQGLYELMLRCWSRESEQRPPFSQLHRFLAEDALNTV
UniProt Q9Y463, whole entry, looked up: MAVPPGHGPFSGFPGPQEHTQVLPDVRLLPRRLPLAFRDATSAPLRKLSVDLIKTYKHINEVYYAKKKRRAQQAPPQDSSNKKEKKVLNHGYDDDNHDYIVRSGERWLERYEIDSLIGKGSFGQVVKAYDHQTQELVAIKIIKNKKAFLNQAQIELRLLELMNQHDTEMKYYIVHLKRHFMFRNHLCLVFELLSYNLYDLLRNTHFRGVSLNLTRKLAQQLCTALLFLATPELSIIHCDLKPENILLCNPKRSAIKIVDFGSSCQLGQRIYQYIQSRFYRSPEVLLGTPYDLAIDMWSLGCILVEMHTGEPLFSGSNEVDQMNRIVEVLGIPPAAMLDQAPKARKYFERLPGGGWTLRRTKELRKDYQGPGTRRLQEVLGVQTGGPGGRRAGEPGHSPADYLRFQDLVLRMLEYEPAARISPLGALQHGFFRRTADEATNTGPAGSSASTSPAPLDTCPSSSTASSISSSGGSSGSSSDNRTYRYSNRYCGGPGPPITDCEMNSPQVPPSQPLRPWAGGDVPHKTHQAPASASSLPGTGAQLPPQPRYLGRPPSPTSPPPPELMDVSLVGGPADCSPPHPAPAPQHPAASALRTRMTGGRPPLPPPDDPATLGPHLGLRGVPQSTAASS
UniProt Q92630: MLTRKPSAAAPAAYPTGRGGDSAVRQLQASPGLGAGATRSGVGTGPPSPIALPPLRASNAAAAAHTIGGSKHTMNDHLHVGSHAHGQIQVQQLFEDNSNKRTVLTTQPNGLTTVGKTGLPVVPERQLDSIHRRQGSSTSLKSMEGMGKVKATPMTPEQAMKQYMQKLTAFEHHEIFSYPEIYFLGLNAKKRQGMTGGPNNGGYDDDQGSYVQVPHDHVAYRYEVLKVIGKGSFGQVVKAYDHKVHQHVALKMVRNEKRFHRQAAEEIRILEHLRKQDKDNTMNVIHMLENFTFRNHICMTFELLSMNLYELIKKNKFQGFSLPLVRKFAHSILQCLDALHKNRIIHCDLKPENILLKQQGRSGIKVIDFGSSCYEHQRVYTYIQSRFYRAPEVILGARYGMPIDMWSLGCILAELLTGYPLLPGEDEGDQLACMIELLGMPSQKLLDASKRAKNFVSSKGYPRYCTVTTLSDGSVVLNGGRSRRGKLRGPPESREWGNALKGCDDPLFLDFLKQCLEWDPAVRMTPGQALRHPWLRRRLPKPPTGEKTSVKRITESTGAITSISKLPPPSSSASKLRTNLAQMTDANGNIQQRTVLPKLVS

Key:
Experiment in all cases: kinase-Nluc reporter destabilization hit call (1 = scored as downregulated) (binary); higher = compound decreases kinase abundance
Conditions in all cases: K562; 2-18 h
CDK7 = CDK7 (UniProt P50613)
CDK9 = CDK9 (UniProt P50750)
CHEK2 = CHEK2 (UniProt O96017)
CSF1R = CSF1R (UniProt P07333)
CSK = CSK (UniProt P41240)
CSNK1A1 = CSNK1A1 (UniProt P48729)
CSNK1D = CSNK1D (UniProt P48730)
DDR1 = DDR1 (UniProt Q08345)
DYRK1B = DYRK1B (UniProt Q9Y463)
DYRK2 = DYRK2 (UniProt Q92630)

Measured: kinase-Nluc reporter destabilization hit call

CCc1nc(C(N)=O)c(Nc2ccc(N3CCC(N4CCN(C)CC4)CC3)c(OC)c2)nc1NC1CCC(OC)CC1 (stereo not given) [EML4-ALK kinase inhibitor 1] (2.5 µM)
inactive: CDK7 = 0 | CDK9 = 0 | CHEK2 = 0 | CSF1R 0 | CSK 0 | CSNK1A1 = 0 | CSNK1D 0 | DDR1 = 0 | DYRK1B 0 | DYRK2 = 0

COc1ccc(COc2cc3oc(=O)c4cc(C(C)O)ccc4c3cc2OC)cc1 (stereo not given) [Palomid 529] (2.5 µM)
inactive: CDK7 = 0 | CDK9 = 0 | CHEK2 = 0 | CSF1R 0 | CSK 0 | CSNK1A1 = 0 | CSNK1D 0 | DDR1 = 0 | DYRK1B 0 | DYRK2 = 0

CCCCNc1ncc2c(-c3ccc(CN4CCN(C)CC4)cc3)cn([C@H]3CC[C@H](O)CC3)c2n1 [UNC2025 (hydrochloride)] (2.5 µM)
inactive: CDK7 = 0 | CDK9 = 0 | CHEK2 = 0 | CSF1R 0 | CSK 0 | CSNK1A1 = 0 | CSNK1D 0 | DDR1 = 0 | DYRK1B 0 | DYRK2 = 0

Cn1c(=O)c(Oc2ccc(F)cc2F)cc2cnc(NC(CCO)CCO)nc21 [Pamapimod] (10 µM)
inactive: CDK7 = 0 | CDK9 = 0 | CHEK2 = 0 | CSF1R 0 | CSK 0 | CSNK1A1 = 0 | CSNK1D 0 | DDR1 = 0 | DYRK1B 0 | DYRK2 = 0

Cc1occ2c1C(=O)c1c(O)ccc(O)c1C2 (2.5 µM)
inactive: CDK7 = 0 | CDK9 = 0 | CHEK2 = 0 | CSF1R 0 | CSK 0 | CSNK1A1 = 0 | CSNK1D 0 | DDR1 = 0 | DYRK1B 0 | DYRK2 = 0

2 neighbouring entries out of the list so far, for reference:
Cn1c(=O)c(Oc2ccc(F)cc2F)cc2cnc(NC(CCO)CCO)nc21 [Pamapimod] (10 µM)
inactive: CDK7 = 0 | CDK9 = 0 | CHEK2 = 0 | CSF1R 0 | CSK 0 | CSNK1A1 = 0 | CSNK1D 0 | DDR1 = 0 | DYRK1B 0 | DYRK2 = 0

Cc1occ2c1C(=O)c1c(O)ccc(O)c1C2 (2.5 µM)
inactive: CDK7 = 0 | CDK9 = 0 | CHEK2 = 0 | CSF1R 0 | CSK 0 | CSNK1A1 = 0 | CSNK1D 0 | DDR1 = 0 | DYRK1B 0 | DYRK2 = 0

More entries:

CN1CCN(c2ccc(NC(=O)c3ccc(C#N)o3)c(N3CCCCC3)c2)CC1 (10 µM)
inactive: CDK7 = 0 | CDK9 = 0 | CHEK2 = 0 | CSF1R 0 | CSK 0 | CSNK1A1 = 0 | CSNK1D 0 | DDR1 = 0 | DYRK1B 0 | DYRK2 = 0

Cc1cccc(-c2[nH]c(C(C)(C)C)nc2-c2ccc3c(c2)OCO3)n1 (2.5 µM)
inactive: CDK7 = 0 | CDK9 = 0 | CHEK2 = 0 | CSF1R 0 | CSK 0 | CSNK1A1 = 0 | CSNK1D 0 | DDR1 = 0 | DYRK1B 0 | DYRK2 = 0

Cc1ncc(F)c(Nc2n[nH]c3c2CN(C(=O)N2C[C@@H](C)N(CC4CCOCC4)C[C@@H]2C)C3(C)C)n1 (10 µM)
inactive: CDK7 = 0 | CDK9 = 0 | CHEK2 = 0 | CSF1R 0 | CSK 0 | CSNK1A1 = 0 | CSNK1D 0 | DDR1 = 0 | DYRK1B 0 | DYRK2 = 0

CNC[C@@H](NC(=O)c1ccc(-c2nc([C@H]3CC[C@H](O)[C@@H](F)C3)cnc2N)cc1F)c1cc(F)cc(Br)c1 [Rineterkib] (10 µM)
inactive: CDK7 = 0 | CDK9 = 0 | CHEK2 = 0 | CSF1R 0 | CSK 0 | CSNK1A1 = 0 | CSNK1D 0 | DDR1 = 0 | DYRK1B 0 | DYRK2 = 0

C=CC(=O)N[C@H]1CCOC[C@H]1Nc1ncc2cc(-c3c(Cl)c(OC)cc(OC)c3Cl)ccc2n1 [Fisogatinib] (10 µM)
inactive: CDK7 = 0 | CDK9 = 0 | CHEK2 = 0 | CSF1R 0 | CSK 0 | CSNK1A1 = 0 | CSNK1D 0 | DDR1 = 0 | DYRK1B 0 | DYRK2 = 0

Cn1cc(-c2cn3nccc3c(-c3cnn([C@]4(CC#N)C[C@@H](C#N)C4)c3)n2)cn1 (10 µM)
inactive: CDK7 = 0 | CDK9 = 0 | CHEK2 = 0 | CSF1R 0 | CSK 0 | CSNK1A1 = 0 | CSNK1D 0 | DDR1 = 0 | DYRK1B 0 | DYRK2 = 0

COc1cc2nccc(Oc3ccc(NC(=O)Nc4ccc(F)cc4F)c(F)c3)c2cc1OC (10 µM)
inactive: CDK7 = 0 | CDK9 = 0 | CHEK2 = 0 | CSF1R 0 | CSK 0 | CSNK1A1 = 0 | CSNK1D 0 | DDR1 = 0 | DYRK1B 0 | DYRK2 = 0

CC[C@@H]1CN(C(=O)NCC(F)(F)F)C[C@@H]1c1cnc2cnc3[nH]ccc3n12 [Upadacitinib] (10 µM)
inactive: CDK7 = 0 | CDK9 = 0 | CHEK2 = 0 | CSF1R 0 | CSK 0 | CSNK1A1 = 0 | CSNK1D 0 | DDR1 = 0 | DYRK1B 0 | DYRK2 = 0

O=c1[nH]nc(Sc2ncc([N+](=O)[O-])s2)n1-c1ccc2c(c1)OCCO2 (2.5 µM)
inactive: CDK7 = 0 | CDK9 = 0 | CHEK2 = 0 | CSF1R 0 | CSK 0 | CSNK1A1 = 0 | CSNK1D 0 | DDR1 = 0 | DYRK1B 0 | DYRK2 = 0

O=C(O)[C@]1(Cc2cccc(Nc3nccs3)n2)CC[C@@H](Oc2cccc(Cl)c2F)CC1 (2.5 µM)
inactive: CDK7 = 0 | CDK9 = 0 | CHEK2 = 0 | CSF1R 0 | CSK 0 | CSNK1A1 = 0 | CSNK1D 0 | DDR1 = 0 | DYRK1B 0 | DYRK2 = 0

CC(C)[C@H](CO)Nc1nc(Nc2ccc(C(=O)O)c(Cl)c2)c2ncn(C(C)C)c2n1 [Purvalanol B] (10 µM)
inactive: CDK7 = 0 | CDK9 = 0 | CHEK2 = 0 | CSF1R 0 | CSK 0 | CSNK1A1 = 0 | CSNK1D 0 | DDR1 = 0 | DYRK1B 0 | DYRK2 = 0

O=C(Nc1cc(Cl)cc(Cl)c1)Nc1cc(Cl)cc(Cl)c1 (10 µM)
inactive: CDK7 = 0 | CDK9 = 0 | CHEK2 = 0 | CSF1R 0 | CSK 0 | CSNK1A1 = 0 | CSNK1D 0 | DDR1 = 0 | DYRK1B 0 | DYRK2 = 0

CNC(=O)Nc1cc(Oc2cncc(C)c2)c(-c2ccc(OCC(C)(C)O)nc2)cn1 (2.5 µM)
inactive: CDK7 = 0 | CDK9 = 0 | CHEK2 = 0 | CSF1R 0 | CSK 0 | CSNK1A1 = 0 | CSNK1D 0 | DDR1 = 0 | DYRK1B 0 | DYRK2 = 0

CC(=O)Nc1nc(C)c(-c2ccc(Cl)c(S(=O)(=O)NCCO)c2)s1 (10 µM)
inactive: CDK7 = 0 | CDK9 = 0 | CHEK2 = 0 | CSF1R 0 | CSK 0 | CSNK1A1 = 0 | CSNK1D 0 | DDR1 = 0 | DYRK1B 0 | DYRK2 = 0

NC(=O)c1ccc2nc(-c3ccc(C4(N)CCC4)cc3)c(-c3ccccc3)n2n1 (10 µM)
inactive: CDK7 = 0 | CDK9 = 0 | CHEK2 = 0 | CSF1R 0 | CSK 0 | CSNK1A1 = 0 | CSNK1D 0 | DDR1 = 0 | DYRK1B 0 | DYRK2 = 0

O=c1cc(-c2ccc(O)cc2)oc2cc(O)c([C@@H]3O[C@H](CO)[C@@H](O)[C@H](O)[C@H]3O)c(O)c12 [Isovitexin] (10 µM)
inactive: CDK7 = 0 | CDK9 = 0 | CHEK2 = 0 | CSF1R 0 | CSK 0 | CSNK1A1 = 0 | CSNK1D 0 | DDR1 = 0 | DYRK1B 0 | DYRK2 = 0

C=CC(=O)N1CCC[C@@H](n2c(=O)n(-c3ccc(Oc4ccccc4)cc3)c3c(N)nccc32)C1 [Tolebrutinib] (10 µM)
inactive: CDK7 = 0 | CDK9 = 0 | CHEK2 = 0 | CSF1R 0 | CSK 0 | CSNK1A1 = 0 | CSNK1D 0 | DDR1 = 0 | DYRK1B 0 | DYRK2 = 0

CCc1ccc(NC(=O)Nc2ccccc2)cc1 (10 µM)
inactive: CDK7 = 0 | CDK9 = 0 | CHEK2 = 0 | CSF1R 0 | CSK 0 | CSNK1A1 = 0 | CSNK1D 0 | DDR1 = 0 | DYRK1B 0 | DYRK2 = 0

CC(C)n1nc(C#Cc2ccccc2)c2c(N)ncnc21 (10 µM)
inactive: CDK7 = 0 | CDK9 = 0 | CHEK2 = 0 | CSF1R 0 | CSK 0 | CSNK1A1 = 0 | CSNK1D 0 | DDR1 = 0 | DYRK1B 0 | DYRK2 = 0

Cc1nc(NC(=O)N2CCC[C@H]2C(N)=O)sc1-c1csc(C(C)(C)C)n1 (10 µM)
inactive: CDK7 = 0 | CDK9 = 0 | CHEK2 = 0 | CSF1R 0 | CSK 0 | CSNK1A1 = 0 | CSNK1D 0 | DDR1 = 0 | DYRK1B 0 | DYRK2 = 0

O=C1NC(=O)C(c2ccccc2[N+](=O)[O-])=C1Nc1ccc(O)c(Cl)c1 (10 µM)
inactive: CDK7 = 0 | CDK9 = 0 | CHEK2 = 0 | CSF1R 0 | CSK 0 | CSNK1A1 = 0 | CSNK1D 0 | DDR1 = 0 | DYRK1B 0 | DYRK2 = 0

COc1cc(Nc2nc3ccccc3nc2NS(=O)(=O)c2ccc(NC(=O)c3ccc(C)c(OC)c3)cc2)cc(OC)c1 (10 µM)
inactive: CDK7 = 0 | CDK9 = 0 | CHEK2 = 0 | CSF1R 0 | CSK 0 | CSNK1A1 = 0 | CSNK1D 0 | DDR1 = 0 | DYRK1B 0 | DYRK2 = 0

CCOc1cc(C(=O)N2CCC(N3CCN(C)CC3)CC2)ccc1Nc1ncc2c(n1)N(S(C)(=O)=O)c1ccccc1C(=O)N2C (10 µM)
inactive: CDK7 = 0 | CDK9 = 0 | CHEK2 = 0 | CSF1R 0 | CSK 0 | CSNK1A1 = 0 | CSNK1D 0 | DDR1 = 0 | DYRK1B 0 | DYRK2 = 0

CN(C)CCCn1cc(C2=C(c3c[nH]c4ccccc34)C(=O)NC2=O)c2ccccc21 [Bisindolylmaleimide I] (2.5 µM)
inactive: CDK7 = 0 | CDK9 = 0 | CHEK2 = 0 | CSF1R 0 | CSK 0 | CSNK1A1 = 0 | CSNK1D 0 | DDR1 = 0 | DYRK1B 0 | DYRK2 = 0
